Values joined by “and” are separate entries in the source; they are usually repeats but may differ in a detail not shown here. Identical values can stand only once. Most of the hits are listed elsewhere, so they are rarer here than in the full data. Inconclusive results are not listed. Active and inactive are the calls of the source. Calls come from the whole dose curve; as a rule, active = well fitted activation curve with a large enough effect; inconclusive = small, poorly fitted or top-dose-only effect; inactive = no such curve, though single readings can be large or run the other way.
target: Rap guanine nucleotide exchange factor 3 (Homo sapiens) (UniProt O95398); assay: Validation qHTS for agonist of cAMP-regulated guanine nucleotide exchange factor 3 (EPAC1); settings: EPAC1 Rap1b BODIPY-GDP exchange, fluorescence; hits give high values; percent of cAMP control response; note: nearly all actives have a fitted effect of over 70% in size
Description: Assay Provider (PI): Xiaodong Cheng Ph.D.
The University of Texas Medical Branch, […], TX
In multi-cellular eukaryotic organisms, the effects of cAMP are transduced by two ubiquitously-expressed intracellular cAMP receptors, the classic protein kinase A/cAMP-dependent protein kinase (PKA/cAPK) and the more recently discovered exchange protein directly activated by cAMP/cAMP-regulated guanine nucleotide exchange factor (EPAC/cAMP-GEF). Both PKA and EPAC are ubiquitously expressed in all tissues, and an increase in intracellular cAMP levels will lead to the activation of both PKA and EPAC. Therefore, careful dissections of the individual role and relative contribution of EPAC and PKA within the overall cAMP signaling in various model systems are critical for further elucidating the mechanism of cAMP signaling. To date no EPAC-specific antagonists and agonist, as well as isoform-specific agonists have been reported, and developing EPAC-specific pharmacological probes to determine the physiological functions that EPAC play in the overall cAMP-mediated signaling remains a major challenge within the research field. […]
This qHTS will be used to screen the Molecular Libraries Small Molecule Repository (MLSMR) as a concentration-titration series using the NCGC unique quantitative screening (qHTS) platform to find activators for EPAC1. […] Activators are identified by monitoring the change in fluorescence signal as the exchanged free BODIPY-GDP has a reduced fluorescence compared to Rap1-bound BODIPY-GDP. […]
Briefly, three uL of reagents (100 nM EPAC1, 250 nM RAP1B-BODIPY-GDP, 50 uM GDP) were dispensed into a 1536-well Greiner black solid-bottom medium binding assay plate. […] The assay plates were read at 5 minute intervals for 30 minutes in the ViewLux plate reader using 480nm excitation and 540nm emission filters. […]
% is set by controls: 0 for no effect and ±100 for the full control effect.

Chains of the proteins cited; added tags and fusions are not shown. Lines headed by an entry give the natural chain unless they say otherwise; changes in a name come on top.
UniProt O95398: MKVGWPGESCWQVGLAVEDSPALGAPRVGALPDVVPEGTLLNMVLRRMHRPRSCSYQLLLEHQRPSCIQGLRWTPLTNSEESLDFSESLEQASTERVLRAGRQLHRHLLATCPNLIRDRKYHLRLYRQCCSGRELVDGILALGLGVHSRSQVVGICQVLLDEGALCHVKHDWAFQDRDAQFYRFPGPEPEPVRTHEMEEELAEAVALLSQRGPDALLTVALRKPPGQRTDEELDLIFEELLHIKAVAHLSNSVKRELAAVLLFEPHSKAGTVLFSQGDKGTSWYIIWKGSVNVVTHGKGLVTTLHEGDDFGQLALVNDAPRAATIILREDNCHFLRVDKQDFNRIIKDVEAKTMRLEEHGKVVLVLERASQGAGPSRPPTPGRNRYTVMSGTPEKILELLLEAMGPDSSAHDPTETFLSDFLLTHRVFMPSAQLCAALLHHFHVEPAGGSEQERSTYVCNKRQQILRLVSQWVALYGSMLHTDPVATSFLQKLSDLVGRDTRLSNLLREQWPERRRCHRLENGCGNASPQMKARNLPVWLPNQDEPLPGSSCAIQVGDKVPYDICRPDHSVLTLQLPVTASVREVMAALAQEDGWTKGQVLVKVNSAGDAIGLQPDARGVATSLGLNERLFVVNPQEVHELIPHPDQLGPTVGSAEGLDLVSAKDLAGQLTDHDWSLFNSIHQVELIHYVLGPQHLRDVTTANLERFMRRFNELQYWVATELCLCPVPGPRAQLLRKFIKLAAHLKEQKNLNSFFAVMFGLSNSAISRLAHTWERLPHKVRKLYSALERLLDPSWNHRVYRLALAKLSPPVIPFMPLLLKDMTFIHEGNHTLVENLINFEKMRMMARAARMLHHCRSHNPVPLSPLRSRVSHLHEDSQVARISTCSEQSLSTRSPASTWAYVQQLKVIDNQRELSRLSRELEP

Max response, inactive:
Nc1ccc(N)c([N+](=O)[O-])c1 -8.35%
Cc1c(C(=O)NN2CCCCC2)nn(-c2ccc(Cl)cc2Cl)c1-c1ccc(I)cc1 19.4%
Cc1cccc(CCN2CCC(C(=O)c3ccc(NS(C)(=O)=O)cc3)CC2)n1 6.94% and -5.71% and -21.4%
